Laboratory results as given in PubChem BioAssay AID901 (National Center for Advancing Translational Sciences (NCATS), 2007).
The list shows a part of the results. Further columns of the screen follow, without active or inactive calls. Most of these compounds were active or inconclusive in the main read-out, so they are no random draw. Words in brackets tell the shape of the fitted curve; partial curves, single points and poor fits give uncertain potencies.

Assay: qHTS Assay for Identifying the Cell-Membrane Permeable IMPase Inhibitors
Conditions: CHO-M1 cells, IP1 accumulation, HTRF TR-FRET ratio; measured here: donor channel 620 nm AC50
In the case of `CCOc1cc(CNc2ccc(O)cc2)ccc1OCc1ccc(Cl)cc1Cl`, the AC50 is reported as 22.4 µM [falling, partial curve, poor fit].
With `CCOC(=O)C(Sc1nnc(-c2ccncc2)o1)C(C)=O` (stereo not drawn) the AC50 was 0.0316 µM [falling, full curve, poor fit].
In the case of `COC(=O)CNc1nc(C2CC2)nc2c1nnn2Cc1ccccc1Cl`, the AC50 is reported as 0.398 µM [falling, full curve].
With `CCCCn1c(SCC(=O)Nc2nc(C)cs2)nnc1-c1cccnc1` the AC50 was 0.1 µM [rising, full curve, poor fit].
With `CCOC(=O)CNC(=O)Nc1nnc(-c2ccc(OCC)cc2)o1` the AC50 was 1 µM [falling, full curve, poor fit].
For `CC(=O)c1ccc(CCCCCCCCCC(=O)O)s1`, the AC50 was 12.6 µM [rising, single point].
For `CN(C)c1ccc(NC(=O)CSc2nc(N)c(C(=O)Nc3ccc(N(C)C)cc3)s2)cc1`, the AC50 was 15.8 µM [falling, single point].
For `CCOc1ccc(/C=N/NC(=O)c2ccccc2NC(=O)c2ccc(OC)cc2)cc1`, the AC50 was 12.6 µM [rising, partial curve].
In the case of `CCCCn1c(NS(=O)(=O)c2ccccc2)c(S(=O)(=O)c2ccc(C)cc2)c2nc3ccccc3nc21`, the AC50 is reported as 28.2 µM [rising, single point].
For `Cc1cccc(Cn2cnc3c(nnn3Cc3ccccc3F)c2=O)c1`, the AC50 was 3.98 µM [falling, partial curve].
In the case of `CC(C)Cc1nnc(NS(C)(=O)=O)s1`, the AC50 is reported as 1.26 µM [falling, partial curve, poor fit].
For `O=C(COc1ncnc2ccccc12)Nc1cccc(S(=O)(=O)N2CCOCC2)c1`, the AC50 was 15.8 µM [rising, single point].
With `COc1ccc2nc(C)cc(SCC(=O)Nc3c(C)cc(C)cc3C)c2c1` the AC50 was 25.1 µM [rising, single point].
With `COC(=O)C1=C(C)N(C2CCCCC2)C(=O)C1` the AC50 was 31.6 µM [falling, single point].
With `CCNC(=O)COC(=O)C1C(C(=O)OCC)=C(C)NC(C)=C1C(=O)OCC` the AC50 was 1.26 µM [falling, full curve, poor fit].
With `O=C(COC(=O)C12CC3CC(CC(C3)C1)C2)Nc1ncc(Cl)cc1Cl` the AC50 was 7.94 µM [falling, partial curve, poor fit].
With `O=C(CCC(=O)OCC(=O)c1ccc(-c2ccccc2)cc1)Nc1cccc(Cl)c1` the AC50 was 0.501 µM [falling, single point].
In the case of `CCn1nnnc1SCC(=O)c1ccc(NC(C)=O)cc1`, the AC50 is reported as 12.6 µM [falling, partial curve].
For `O=C(CCn1nnc2ccccc21)Nc1nnc(COc2ccc(F)cc2)s1`, the AC50 was 0.0158 µM [rising, full curve, poor fit].
For `CCn1c(=N)c(C(=O)NCCCOC)cc2c(=O)n3cccc(C)c3nc21`, the AC50 was 3.98 µM [falling, single point].
In the case of `COCCn1c(SCC(=O)N2CC(=O)Nc3ccccc32)nnc1-c1ccoc1C`, the AC50 is reported as 0.794 µM [falling, full curve].
For `O=C(O)c1ccccc1NCN1C(=O)C2CC=C(Cl)CC2C1=O` (stereo not drawn), the AC50 was 15.8 µM [rising, partial curve].
In the case of `CCCCNC(=O)NNC(=O)c1ccoc1C`, the AC50 is reported as 0.1 µM [falling, full curve, poor fit].
With `COc1ncnc2c1N=C1CC(C)(C)CC(N)=C1S2` the AC50 was 12.6 µM [falling, single point].
For `COc1ccc(/C=N/NC(=O)CSCc2ccc([N+](=O)[O-])cc2)cc1OC`, the AC50 was 0.0316 µM [falling, full curve, poor fit].
For `CCCn1c(=O)c2ccccc2n2c(SCC(=O)Nc3cc(C)on3)nnc12`, the AC50 was 0.0158 µM [falling, full curve, poor fit].
With `C=CCNC(=O)c1ccc(Sc2ccccc2)c([N+](=O)[O-])c1` the AC50 was 0.316 µM [falling, full curve, poor fit].
For `O=S(=O)(Nc1ccc(N2CCCCC2)cc1)c1cccs1`, the AC50 was 0.02 µM [falling, full curve, poor fit].
With `O=S(=O)(Nc1nc2ccccc2nc1Cl)c1ccccc1` the AC50 was 11.2 µM [rising, partial curve].
In the case of `CCN1C(=O)/C(=C2/C=Cc3cc(C)ccc3N2CC)N(C)C1=S`, the AC50 is reported as 12.6 µM [falling, single point].
For `O=C(CSc1nnc(-c2cccs2)o1)c1cccs1`, the AC50 was 20 µM [falling, partial curve, poor fit].
With `O=C(Cn1c(=O)n(Cc2ccc3c(c2)OCO3)c(=O)c2ccccc21)N1CCCc2ccccc21` the AC50 was 31.6 µM [falling, single point].
For `CCOC(=O)c1csc(Nc2nc3ccc(F)cc3s2)n1`, the AC50 was 3.16 µM [rising, single point].
In the case of `O=c1cc(CN2CCC3(CC2)OCCO3)c2c(ccc3ccccc32)o1`, the AC50 is reported as 0.794 µM [falling, single point].
For `CC(C)C(NS(=O)(=O)c1cccs1)C(=O)N(C)Cc1ccccc1` (stereo not drawn), the AC50 was 12.6 µM [falling, partial curve, poor fit].
In the case of `COc1ccc(C(=O)Nc2cc(NC(=O)c3ccco3)ccc2OC)cc1Cl`, the AC50 is reported as 0.00501 µM [falling, full curve].
In the case of `Cc1nc(NC(=O)c2cccnc2)ccc1Br`, the AC50 is reported as 1 µM [falling, full curve, poor fit].
With `COc1ccc(C(=O)CSc2nnc(-c3ccc(S(=O)(=O)N4CCOCC4)cc3)o2)cc1` the AC50 was 31.6 µM [falling, single point].
For `C/C(=C\c1ccccc1)CN(C)CCN(C)C`, the AC50 was 0.0631 µM [rising, full curve, poor fit].
With `Cc1cc(C)n(C/C=C/Cn2nc(C)cc2C)n1` the AC50 was 0.355 µM [rising, partial curve, poor fit].
For `Cc1cccc(C(=O)NCC2CCCO2)c1` (stereo not drawn), the AC50 was 35.5 µM [rising, partial curve].
For `O=C(Nc1cccnc1)Nc1ccccn1`, the AC50 was 35.5 µM [falling, single point].
For `CCCOC(=O)C1[C@H]2C(=O)N(CC3CCCO3)C[C@]23C=C[C@H]1O3` (stereo partly drawn), the AC50 was 0.0631 µM [rising, full curve, poor fit].
